Patent US20100130457A1, “Phenothiazine Derivatives for Treatment of Asthma” (Immune Control, Inc., priority 2008, published 2010)

Tested on: human small airway
Assay: Human precision-cut lung slices (PCLS), small airway contraction
Conditions: C-027 10^−5 M; formoterol 0.3 nM
Description: Human precision-cut lung slices (PCLS) permit evaluation of pharmacological responses of novel drug candidates applied directly to their target tissue.
Human precision-cut lung slices (PCLS, 250 μm thick) containing a small airway were contracted to carbachol, histamine and passively sensitization to induce airway closure±pre-incubation with ICI-735 (10 μM; 2 hours); FIG. 13. For example, human lung slices containing a small airway were incubated overnight with either negative control IgG (4 μg/mL) or positive control IgE (4 μg/mL). The slices were tested as follows: 1) IgG+anti-IgE; 2) IgE+anti-IgE; 3) IgE+Dexamethasone (1 μM)+anti-IgE; and 4) IgE+ICI-735 (10 μM) +anti-IgE. Dexamethasone and ICI-735 were pre-incubated 2 hours prior to anti-IgE; anti-IgE is used to crosslink antibodies and induce mast cell degranulation, which is believed to release histamine and cause airway contract. […]
Human lung tissue contains multiple cell types, including mast cells, that localize in the region of airway smooth muscle, and that increase in number in individuals with asthma. […]
To test C-027 as a blocker of histamine-induced bronchoconstriction, lung slices were incubated for 2 hours with C-027, and small airway contraction was evaluated after addition of increasing concentrations of histamine.

For `COc1ccc(CC(C)NCC(O)c2ccc(O)c(NC=O)c2)cc1` (stereo not shown) [formoterol, reference compound], the “CCh-induced bronchoconstriction after pretreatment of lung slices” value was “Reduced responsiveness”.
